The target of one test is FLAG-tagged PKM2 (human) (UniProt P14618). In words: co-IP; cytoplasmic extracts of transiently transfected cells; FLAG M2-agarose or HA-agarose beads at 4 °C overnight, washed with BC100 buffer, eluted with FLAG or HA peptide; Western blot. (Immunoblotting shows a protein as a band on a membrane.)
In the next test the target is FLAG-tagged PKM1 (UniProt P14618). The test is described as above.
Test [1] concerns the target full-length GST-PKM2 fusion protein (human) (UniProt P14618). In words: pull-down; purified GST or GST-tagged protein incubated with in vitro translated 35S-labeled protein at 4 °C overnight in BC100 buffer + 0.2% BSA, GST resin, eluted with 20 mM reduced glutathione; autoradiography; only the target purified.
The target of test [2] is FLAG-HA-parkin (FLAG- and HA-double tagged human parkin) (human) (UniProt O60260). In words: co-IP; FLAG-HA-parkin/H1299 stable line, glucose starvation for 0, 1 and 2 h; cytoplasmic extracts, FLAG M2-agarose beads; Western blot.
In test [3] the target is FLAG-tagged parkin (human) (UniProt O60260). In words: co-IP; cytoplasmic extracts of transiently transfected cells; FLAG M2-agarose or HA-agarose beads at 4 °C overnight, washed with BC100 buffer, eluted with FLAG or HA peptide; Western blot.
Test [4] concerns the target parkin, endogenous (human (endogenous in H1299, U87, IMR32)) (UniProt O60260). In words: co-IP; endogenous proteins; cytoplasmic extracts of U87 or IMR32 cells; PKM2-specific or parkin-specific antibody or control IgG at 4 °C overnight, Protein A/G beads, BC100 washes; Western blot.
In test [5] the target is pyruvate kinase M2, endogenous (human (endogenous in H1299, U87, IMR32)) (UniProt P14618). The description is as above.
In test [6] the target is GST-tagged full-length parkin (human) (UniProt O60260). In words: pull-down; purified GST or GST-tagged protein incubated with in vitro translated 35S-labeled protein at 4 °C overnight in BC100 buffer + 0.2% BSA, GST resin, eluted with 20 mM reduced glutathione; autoradiography; only the target purified.

Protein sequences, listed by entry. Tags and fused reporters are not part of them. Lines headed by an entry give the natural chain unless they say otherwise; changes in a name come on top. Chains listed by the source or under a name are the forms on record and can include a tag or linker.
UniProt P14618: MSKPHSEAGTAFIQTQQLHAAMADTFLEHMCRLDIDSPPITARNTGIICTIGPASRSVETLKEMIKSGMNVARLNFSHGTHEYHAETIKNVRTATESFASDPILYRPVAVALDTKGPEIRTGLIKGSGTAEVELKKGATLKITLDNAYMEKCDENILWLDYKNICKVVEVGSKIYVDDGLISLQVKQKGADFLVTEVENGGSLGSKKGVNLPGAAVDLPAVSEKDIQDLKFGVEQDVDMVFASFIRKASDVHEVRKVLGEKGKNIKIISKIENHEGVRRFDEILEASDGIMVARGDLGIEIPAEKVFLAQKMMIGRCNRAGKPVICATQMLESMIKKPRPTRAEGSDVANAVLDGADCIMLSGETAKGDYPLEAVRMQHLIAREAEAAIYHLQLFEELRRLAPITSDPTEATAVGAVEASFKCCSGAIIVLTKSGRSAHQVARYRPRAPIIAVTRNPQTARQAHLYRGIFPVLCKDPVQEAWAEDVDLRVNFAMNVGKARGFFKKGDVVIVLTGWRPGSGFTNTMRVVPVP
FLAG-tagged PKM1 (P14618, form named): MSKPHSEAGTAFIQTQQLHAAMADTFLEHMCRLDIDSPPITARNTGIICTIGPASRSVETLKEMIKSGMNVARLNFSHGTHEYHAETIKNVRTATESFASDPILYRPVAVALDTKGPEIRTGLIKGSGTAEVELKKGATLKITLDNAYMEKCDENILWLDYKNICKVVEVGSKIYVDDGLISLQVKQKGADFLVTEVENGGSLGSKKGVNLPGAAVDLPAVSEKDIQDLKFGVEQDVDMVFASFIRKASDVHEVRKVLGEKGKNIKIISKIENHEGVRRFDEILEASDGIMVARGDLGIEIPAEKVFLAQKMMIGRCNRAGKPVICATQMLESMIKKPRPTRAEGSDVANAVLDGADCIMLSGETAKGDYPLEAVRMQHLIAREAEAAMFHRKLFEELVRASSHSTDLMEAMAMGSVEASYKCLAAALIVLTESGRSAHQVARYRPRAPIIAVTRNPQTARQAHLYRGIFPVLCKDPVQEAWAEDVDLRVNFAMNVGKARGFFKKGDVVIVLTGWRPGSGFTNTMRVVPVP
UniProt O60260: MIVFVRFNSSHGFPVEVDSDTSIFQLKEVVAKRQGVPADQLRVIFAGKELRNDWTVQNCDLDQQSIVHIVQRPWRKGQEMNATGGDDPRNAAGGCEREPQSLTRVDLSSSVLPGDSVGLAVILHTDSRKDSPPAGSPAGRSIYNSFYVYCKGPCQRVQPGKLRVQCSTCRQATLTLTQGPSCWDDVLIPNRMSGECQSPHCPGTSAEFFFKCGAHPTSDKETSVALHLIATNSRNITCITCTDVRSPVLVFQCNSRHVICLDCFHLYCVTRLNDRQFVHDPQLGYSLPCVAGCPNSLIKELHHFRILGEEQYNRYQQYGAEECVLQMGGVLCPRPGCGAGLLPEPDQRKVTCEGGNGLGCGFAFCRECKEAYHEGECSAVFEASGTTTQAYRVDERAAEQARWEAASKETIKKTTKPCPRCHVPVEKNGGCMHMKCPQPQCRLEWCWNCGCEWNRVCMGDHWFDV

The source of these data is paper PMC4858978.

These are yes or no findings as the source states them, for the method shown. In cells and extracts the contact can be indirect. Some results given as binding are weak or reduced against the parent protein; the word gives no strength.

On to “myc-tagged parkin (from UniProt O60260 1-465) (enzyme)”, for which the binding result with FLAG-tagged PKM2 (human) is reported as “binds”.
In the case of “HA-tagged parkin (from UniProt O60260 1-465) (enzyme)”, in the test with FLAG-tagged PKM1, the binding entry is recorded as “binds”.
“in vitro translated [35S]methionine-labeled parkin 100-465 fragment (from UniProt O60260 100-465) (domain or fragment)”: in test [1], the binding entry is recorded as “binds”.
Same read-out and setting: with “in vitro translated [35S]methionine-labeled full-length parkin (from UniProt O60260 1-465) (enzyme)” the entry was “binds”.
As to “pyruvate kinase M2, endogenous (from UniProt P14618 1-531) (enzyme)”, the binding result in test [2], in test [3] and in test [4] was “binds” each time.
For the substance “parkin, endogenous (from UniProt O60260 1-465) (enzyme)”, in test [5], the binding entry was “binds”.
As to “in vitro translated [35S]methionine-labeled PKM2 (from UniProt P14618 1-531) (enzyme)”, in test [6], the binding entry is given as “binds”.
